Test results from PubChem BioAssay AID2551 (National Center for Advancing Translational Sciences (NCATS), 2010).
Hit rate of the full screen: of about 310,000 compounds, about 17,000 (5.5%) were called active. The shares of active, inactive and inconclusive entries below differ from those in the screen. Calls follow the shape of the dose curve; as a rule, active = well fitted inhibition curve with a large enough effect; inconclusive = small, poorly fitted or top-dose-only effect, or effect the other way; inactive = no such curve, though single readings can be large or run the other way. A potency beside an inconclusive call is a rough fit, not a confirmed value.

Amino acid sequences for entries named in this document (tags omitted). A change or cut given only in a name is not applied to a line headed by its entry.
UniProt P51450: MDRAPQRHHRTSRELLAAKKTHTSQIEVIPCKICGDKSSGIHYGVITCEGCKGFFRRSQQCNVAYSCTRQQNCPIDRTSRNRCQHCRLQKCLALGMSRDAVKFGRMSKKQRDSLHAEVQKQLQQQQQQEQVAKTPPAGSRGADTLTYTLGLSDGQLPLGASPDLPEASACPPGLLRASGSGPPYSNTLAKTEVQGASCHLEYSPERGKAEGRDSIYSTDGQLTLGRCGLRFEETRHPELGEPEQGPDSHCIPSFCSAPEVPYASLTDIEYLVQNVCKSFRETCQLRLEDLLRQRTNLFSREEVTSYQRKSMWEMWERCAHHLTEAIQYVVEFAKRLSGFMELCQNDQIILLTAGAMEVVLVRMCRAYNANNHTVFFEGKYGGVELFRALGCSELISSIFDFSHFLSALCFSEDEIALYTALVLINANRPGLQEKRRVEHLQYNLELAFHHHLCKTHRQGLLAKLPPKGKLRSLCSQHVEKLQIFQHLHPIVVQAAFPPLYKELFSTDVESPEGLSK

target: Nuclear receptor ROR-gamma (Mus musculus) (UniProt P51450); test: qHTS for inhibitors of ROR gamma transcriptional activity; conditions: Drosophila S2 Gal4-RORgamma UAS-luciferase reporter, 20 h; activity change, negative = inhibition: at 53.6 µM (top of the series); also: nearly all actives have a fitted effect of over 60% in size
How it was run: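 Luciferase reporter read in Schneider cells carrying Gal4-RORγ (mouse) and UAS-Photinus luciferase; cells given compound 1 h before 700 uM copper sulfate induction, then incubated 20 h at ambient temperature.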
% is scaled to controls: 0 for no effect and ±100 for the full control effect; potency is read from the fitted curve at half-maximal effect.

Compound | Potency | activity change, negative = inhibition
COc1cccc(OCCNc2cc(N3CCCCC3)ccc2[N+](=O)[O-])c1 | inconclusive: 12.6 µM [activator, single point] | 
Cc1ccc(C)c(OCCSc2nnc(C)c(=O)[nH]2)c1 | inconclusive: 10 µM [activator, partial curve] | 
CN(c1ccc(C(=O)Nc2ccccc2C(=O)N2CCOCC2)cc1)S(C)(=O)=O | inconclusive: 11.2 µM [activator, partial curve, poor fit] | 
CC(C)C[C@H](NC(=O)c1nc[nH]c1C(=O)N[C@@H](CC(C)C)C(=O)OC(C)(C)C)C(=O)OCc1ccccc1 | active: 5.01 µM | 
COC(=O)c1ccccc1NC(=O)c1cncc(Br)c1 |  | inactive: -5.09%
C/C(=N/NC(=O)c1ccoc1C)c1ccc(NC(=O)C2CCCC2)cc1 | inconclusive: 14.1 µM [inhibitor, single point] | 
CCC(C)NC(=S)Nc1ccc2nc(N3CCN(CC)CC3)cc(C)c2c1 (centres undefined) | inconclusive: 35.5 µM [inhibitor, single point] | 
Cc1noc(C)c1COc1ccc(CC(=O)NCCc2ccccn2)cc1 |  | inactive: -5.54%
CCN(Cc1cc2cc(C)ccc2[nH]c1=O)C(=O)c1cccc(OC)c1 | inconclusive: 11.2 µM [activator, single point] | 
CCNc1nc(NCC)n2c(SC(C(=O)Nc3cc(Cl)cc(Cl)c3)c3ccccc3)nnc2n1 (centres undefined) | inconclusive: 10 µM [inhibitor, single point] | 
CC1(C)CC(=O)c2cc3c(nc2C1)CC(C)(C)CC3=O | inconclusive: 12.6 µM [activator, partial curve] | 
CCN(CC)c1nc2c(c(=O)n(C)c(=O)n2C)n1CCCc1ccccc1 | inconclusive: 11.2 µM [activator, partial curve] | 
Oc1c(-c2cc(-c3ccco3)[nH]n2)ccc2ccccc12 | active: 6.31 µM | 
COCCn1c(SCc2csc(-c3ccccc3)n2)nc2ccccc21 | inconclusive: 6.31 µM [activator, single point] | 
O=C(Cn1ccc2ccccc2c1=O)NCCC(=O)N1CCN(c2cccc(Cl)c2)CC1 | inconclusive: 3.55 µM [inhibitor, partial curve, poor fit] | 
Cc1cc(OC(C)C(=O)N2CCN(c3ccccc3)CC2)c2c(C)c(C)c(=O)oc2c1 (centres undefined) |  | inactive: -15.2%
CCCCCCC#CC1C=CC(OC(=O)OCC)C(COC(=O)OCC)O1 (centres undefined) | inconclusive: 3.16 µM [inhibitor, single point] | 
Cc1ccccc1OCCCCCn1ccnc1 | active: 11.2 µM | 
COc1ccc(NC(=O)CN2CCC(C)CC2)cc1 |  | inactive: -8.78%

A different layout for part of the listing above:
Compound,Potency,"activity change, negative = inhibition"
Cc1noc(C)c1COc1ccc(CC(=O)NCCc2ccccn2)cc1,,inactive: -5.54%
CCN(Cc1cc2cc(C)ccc2[nH]c1=O)C(=O)c1cccc(OC)c1,"inconclusive: 11.2 µM [activator, single point]",
